Consider 2 substances from PMC9925739.

Protein sequences, listed by entry. Tags and fused reporters are not part of them.
UniProt P40763: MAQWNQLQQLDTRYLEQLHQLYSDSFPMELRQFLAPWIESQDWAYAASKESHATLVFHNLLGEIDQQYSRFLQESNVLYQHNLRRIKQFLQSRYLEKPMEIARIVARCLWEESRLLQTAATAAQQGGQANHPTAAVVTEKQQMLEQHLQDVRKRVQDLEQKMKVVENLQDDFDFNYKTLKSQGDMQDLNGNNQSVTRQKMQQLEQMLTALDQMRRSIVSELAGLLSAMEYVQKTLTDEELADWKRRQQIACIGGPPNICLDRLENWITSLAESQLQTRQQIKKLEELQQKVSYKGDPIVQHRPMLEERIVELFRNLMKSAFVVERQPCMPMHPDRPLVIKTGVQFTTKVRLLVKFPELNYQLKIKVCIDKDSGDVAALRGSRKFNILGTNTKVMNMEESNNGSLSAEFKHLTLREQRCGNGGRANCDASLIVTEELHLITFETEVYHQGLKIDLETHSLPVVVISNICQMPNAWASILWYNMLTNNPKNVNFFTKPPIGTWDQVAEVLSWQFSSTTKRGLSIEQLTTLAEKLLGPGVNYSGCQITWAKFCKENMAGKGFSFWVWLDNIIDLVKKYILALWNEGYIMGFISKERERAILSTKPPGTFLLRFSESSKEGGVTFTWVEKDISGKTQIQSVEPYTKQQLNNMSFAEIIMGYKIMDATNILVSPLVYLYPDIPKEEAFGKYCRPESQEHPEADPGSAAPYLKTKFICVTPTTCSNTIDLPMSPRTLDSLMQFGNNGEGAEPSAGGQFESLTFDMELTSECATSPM
UniProt Q15672: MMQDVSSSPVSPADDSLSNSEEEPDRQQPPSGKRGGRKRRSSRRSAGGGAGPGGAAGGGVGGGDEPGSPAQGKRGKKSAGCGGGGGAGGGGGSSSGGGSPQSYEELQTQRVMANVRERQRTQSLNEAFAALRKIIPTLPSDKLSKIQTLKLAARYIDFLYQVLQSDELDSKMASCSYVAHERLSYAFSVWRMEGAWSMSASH

Results are given in words; binding and its absence hold for the method and conditions named. In cells and extracts the contact can be indirect. Some results given as binding are weak or reduced against the parent protein; the word gives no strength.

This test addresses T1, Ras-related protein 31 (human) (UniProt Q13636).
T1 sequence: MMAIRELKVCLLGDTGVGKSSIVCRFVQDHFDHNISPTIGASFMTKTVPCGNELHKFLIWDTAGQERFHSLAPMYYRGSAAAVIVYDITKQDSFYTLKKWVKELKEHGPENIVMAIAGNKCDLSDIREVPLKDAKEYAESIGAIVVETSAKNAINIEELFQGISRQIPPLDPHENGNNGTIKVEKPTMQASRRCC
Nature of the test: co-IP; coimmunoprecipitation from AGS cells (Fig. 4F, Fig. S2A); bait, antibody and buffer not told in the main text.

Regarding Stat3 (from UniProt P40763 1-770), the binding result is reported as “binds”. As for “Twist-related protein 1 (from UniProt Q15672 1-202)”, the entry is “no binding”.
